Assay results reported in US20050004144A1, “Combined use of IMPDH inhibitors with toll-like receptor agonists” (REGENTS OF THE UNIVERSITY OF CALIFORNIA, priority 2003, published 2005).
For at least one compound, name, drawing or mass did not settle the structure.

Tested on: Listeria monocytogenes
Assay: Listeria infection in mice pretreated with TLR ligands
Assay type: in vivo
Details: 10 μg of R-848 24 hours before infection, sacrificed 72 hours later
Experimental: Groups of six mice were injected with 10 μg of either ISS-ODN, Pam3Cys, or polyI:C three days before infection with 7×10^5 Listeria monocytogenes. […] 5 mice also each received 10 μg of R-848, 24 hours before infection. […]

CCOCc1nc2c(N)nc3ccccc3c2n1CC(C)(C)O [R-848, resiquimod]
bacterial counts (CFU/spleen): lowered bacterial counts nearly two logs
